Experimental data taken from article PMC8063088.
Results are given in words; binding and its absence hold for the method and conditions named. Binding can be weak; no strength is given. For some assays here: Tags and fused reporters may be left off the sequences shown. For some assays here: In cells and extracts the contact can be indirect.

Sequences of proteins named here, by UniProt entry; tags and fusion partners are left off. A change or cut given only in a name is not applied to a line headed by its entry. Residues count along the entry.
UniProt P97798: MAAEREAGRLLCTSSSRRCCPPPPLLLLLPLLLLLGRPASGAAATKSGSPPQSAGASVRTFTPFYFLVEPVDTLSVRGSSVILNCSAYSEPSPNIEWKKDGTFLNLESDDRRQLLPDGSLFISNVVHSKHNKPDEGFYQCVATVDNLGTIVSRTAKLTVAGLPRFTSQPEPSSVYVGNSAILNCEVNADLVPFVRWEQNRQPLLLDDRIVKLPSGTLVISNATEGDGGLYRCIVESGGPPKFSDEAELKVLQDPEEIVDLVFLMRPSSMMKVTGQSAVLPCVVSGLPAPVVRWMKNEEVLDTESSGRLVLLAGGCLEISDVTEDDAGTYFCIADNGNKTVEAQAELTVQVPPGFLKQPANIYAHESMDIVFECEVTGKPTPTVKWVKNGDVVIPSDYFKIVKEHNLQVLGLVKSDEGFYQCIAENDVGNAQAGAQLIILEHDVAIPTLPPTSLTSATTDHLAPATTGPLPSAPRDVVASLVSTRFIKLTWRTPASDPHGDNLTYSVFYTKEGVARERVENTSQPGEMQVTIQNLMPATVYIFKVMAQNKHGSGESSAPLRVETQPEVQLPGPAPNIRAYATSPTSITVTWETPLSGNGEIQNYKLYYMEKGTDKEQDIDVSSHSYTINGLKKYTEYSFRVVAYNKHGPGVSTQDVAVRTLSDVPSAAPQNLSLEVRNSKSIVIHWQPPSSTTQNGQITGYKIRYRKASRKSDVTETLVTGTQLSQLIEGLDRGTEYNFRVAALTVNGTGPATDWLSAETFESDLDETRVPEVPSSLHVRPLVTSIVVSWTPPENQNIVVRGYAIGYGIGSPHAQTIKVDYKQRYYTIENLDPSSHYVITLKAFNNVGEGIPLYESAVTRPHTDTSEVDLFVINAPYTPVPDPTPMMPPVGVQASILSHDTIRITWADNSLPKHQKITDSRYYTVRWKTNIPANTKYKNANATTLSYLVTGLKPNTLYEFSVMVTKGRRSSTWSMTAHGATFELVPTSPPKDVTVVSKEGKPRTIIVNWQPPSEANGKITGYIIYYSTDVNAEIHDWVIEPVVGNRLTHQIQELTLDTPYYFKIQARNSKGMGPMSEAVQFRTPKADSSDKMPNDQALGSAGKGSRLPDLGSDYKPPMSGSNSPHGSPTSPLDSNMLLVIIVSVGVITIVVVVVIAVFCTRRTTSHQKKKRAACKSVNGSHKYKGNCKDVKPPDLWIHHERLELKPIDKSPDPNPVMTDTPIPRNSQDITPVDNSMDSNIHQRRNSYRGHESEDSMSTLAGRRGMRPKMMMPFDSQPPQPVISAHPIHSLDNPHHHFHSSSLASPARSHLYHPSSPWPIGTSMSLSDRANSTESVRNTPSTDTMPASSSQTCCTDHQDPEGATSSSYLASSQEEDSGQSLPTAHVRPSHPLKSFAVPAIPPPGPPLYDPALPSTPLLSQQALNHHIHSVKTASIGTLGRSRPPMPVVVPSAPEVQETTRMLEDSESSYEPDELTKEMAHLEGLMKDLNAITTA
wild type mouse NEO1 (pCMVXL-6-NEO1): residues 37-1492 of P97798
GFP-NEO1 (pcDNA3.1-CMV-GFP-NEO1): residues 46-1492 of P97798
UniProt Q6PCX7: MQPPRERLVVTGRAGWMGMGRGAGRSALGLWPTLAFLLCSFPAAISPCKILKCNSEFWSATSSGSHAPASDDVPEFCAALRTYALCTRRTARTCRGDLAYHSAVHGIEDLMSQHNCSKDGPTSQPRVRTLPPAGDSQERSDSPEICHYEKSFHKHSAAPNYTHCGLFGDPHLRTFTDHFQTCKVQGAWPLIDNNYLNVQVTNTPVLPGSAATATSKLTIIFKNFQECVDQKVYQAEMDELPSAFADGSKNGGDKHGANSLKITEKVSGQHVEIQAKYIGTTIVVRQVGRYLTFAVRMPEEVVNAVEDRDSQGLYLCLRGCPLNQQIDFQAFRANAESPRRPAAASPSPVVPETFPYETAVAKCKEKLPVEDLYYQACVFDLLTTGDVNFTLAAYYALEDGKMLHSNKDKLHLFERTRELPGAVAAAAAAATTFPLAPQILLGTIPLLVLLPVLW

Legend:
[1] = molecular target: NEO1-mVenus fusion protein (mouse) (UniProt Q7TQG5); assay: proximity ligation; same PLA as a5, read for full-length RGMB and NEO1-mVenus co-transfected in COS-7 cells
[2] = molecular target: GFP-NEO1 (pcDNA3.1-CMV-GFP-NEO1) (mouse) (UniProt P97798); assay: AP-ligand binding to cells; COS-7 cells transfected with wild type mouse NEO1, GFP-NEO1 or empty pcDNA3.1; AP-ligands 75 min at RT in HBHA buffer; bound AP shown with NBT/BCIP
[3] = molecular target: wild type mouse NEO1 (pCMVXL-6-NEO1) (mouse) (UniProt P97798); assay: as above
[4] = molecular target: NEO1-mVenus fusion protein (mouse) (UniProt Q7TQG5); assay: proximity ligation; same PLA as a3, read for the soluble ligands against NEO1-mVenus on COS-7 cells; only the binder purified
[5] = molecular target: NEO1 FN type III domains 4 to 6 (NEO1_(FN456)) (mouse); assay: crystal structure; ternary NEO1_(FN456):NET1_(ΔNTR):RGMB_(CORE) complex, equimolar mix, SEC-purified, endoglycosidase F1-treated, 3 mM sucrose octasulfate; 3.25 Å; 3:3:3 trimer-of-trimers; both purified
[6] = molecular target: NEO1 FN type III domains 4 to 6 (NEO1_(FN456)) (mouse); assay: cryo-EM structure; ternary NEO1_(FN456)-NET1_(ΔNTR)-RGMBECD, SEC peak fraction at 0.07 mg/ml; C3 symmetry; 6.0 Å; both purified
[7] = molecular target: NEO1 FN type III domains 4 to 6 (NEO1_(FN456)) (mouse); assay: SEC-SAXS; ternary NEO1_(FN456)-NET1_(ΔNTR)-RGMBECD at 3.3, 4.0 and 6.0 mg/ml; 10 mM Tris pH 7.5, 150 mM NaCl, 3 mM CaCl2, 1 mM KNO3; 298 K; both purified
[8] = molecular target: NEO1 FN type III domains 4 to 6 (NEO1_(FN456)) (mouse); assay: SEC; ternary NEO1_(FN456)-NET1_(ΔNTR)-RGMBECD on S200 10/300 Increase; 10 mM HEPES pH 7.5, 150 mM NaCl, 2 mM CaCl2, 1 mM SOS, 4 °C; fractions on SDS-PAGE; both purified
[9] = molecular target: NEO1 FN type III domains 4 to 6 (NEO1_(FN456)) (mouse); assay: AUC; sedimentation velocity, 20 °C; ternary NEO1_(FN456)-NET1_(ΔNTR)-RGMBECD complexes (NET1 wild type or Interface-1/-2 mutants) mixed equimolar, 10 mM HEPES pH 7.5, 150 mM NaCl, 2 mM CaCl2; both purified
[10] = molecular target: NEO1 FN type III domains 4 to 6 (NEO1_(FN456)) (mouse); assay: SEC-MALS; ternary NEO1_(FN456)-NET1_(ΔNTR)-RGMBECD (1.0 mg/ml, Superdex 200 10/30) and -RGMAECD (1.8 mg/ml, Superose 6 Increase 10/300); 150 mM NaCl, 10 mM HEPES pH 7.5, 2 mM CaCl2, 1 mM sucrose octasulfate, 21 °C; both purified
[11] = molecular target: NEO1 FN type III domains 4 to 6 (NEO1_(FN456)) (mouse); assay: SEC; binary NEO1_(FN456) with RGMAECD or RGMCECD; Superose 6 Increase 10/300 GL, 150 mM NaCl, 10 mM HEPES pH 7.5, 2 mM CaCl2, 21 °C; fractions on SDS-PAGE; both purified
[12] = molecular target: NEO1 FN type III domains 4 to 6 (NEO1_(FN456)) (mouse); assay: SEC; ternary NET1-NEO1-RGMC; Superose 6 Increase 10/300 GL, 150 mM NaCl, 10 mM HEPES pH 7.5, 2 mM CaCl2, 1 mM sucrose octasulfate, 21 °C; input 0.6 ml at 2.6 mg/ml; SDS-PAGE; both purified

Molecule: full-length GPI-anchored RGMB (RGMBFL), N-terminal FLAG (from UniProt Q6NW40) (ligand)
- binding [1]: binds

Molecule: RGMA-AP (from UniProt Q6PCX7) (ligand)
- binding [2]: binds
- binding [3]: binds

B1: RGMBECD wild type, N-terminal FLAG and C-terminal His6 (ligand, UniProt Q6NW40 53-412)
chain: QCRIQKCTTDFVSLTSHLNSAVDGFDSEFCKALRAYAGCTQRTSKACRGNLVYHSAVLGISDLMSQRNCSKDGPTSSTNPEVTHDPCNYHSHAGAREHRRGDQNPPSYLFCGLFGDPHLRTFKDNFQTCKVEGAWPLIDNNYLSVQVTNVPVVPGSSATATNKITIIFKAHHECTDQKVYQAVTDDLPAAFVDGTTSGGDSDAKSLRIVERESGHYVEMHARYIGTTVFVRQVGRYLTLAIRMPEDLAMSYEESQDLQLCVNGCPLSERIDDGQGQVSAILGHSLPRTSLVQAWPGYTLETANTQCHEKMPVKDIYFQSCVFDLLTTGDANFTAAAHSALEDVEALHPRKERWHIFPSSG
- binding [4]: binds

B2: RGMB NEO1-binding region (RGMB_(CORE)) (domain or fragment, UniProt Q6NW40 137-334)
chain: DPCNYHSHAGAREHRRGDQNPPSYLFCGLFGDPHLRTFKDNFQTCKVEGAWPLIDNNYLSVQVTNVPVVPGSSATATNKITIIFKAHHECTDQKVYQAVTDDLPAAFVDGTTSGGDSDAKSLRIVERESGHYVEMHARYIGTTVFVRQVGRYLTLAIRMPEDLAMSYEESQDLQLCVNGCPLSERIDDGQGQVSAILG
- binding [5]: binds

B3: full-length ectodomain of RGMB (RGMBECD), C-terminal His6 (ligand, UniProt Q6NW40 53-412)
chain: B1 chain
- binding [6]: binds
- binding [7]: binds
- binding [8]: binds
- binding [9]: binds
- binding [10]: binds

B4: full-length extracellular domain of human RGMA (RGMAECD) (ligand, UniProt Q96B86 47-423)
chain: PCKILKCNSEFWSATSGSHAPASDDTPEFCAALRSYALCTRRTARTCRGDLAYHSAVHGIEDLMSQHNCSKDGPTSQPRLRTLPPAGDSQERSDSPEICHYEKSFHKHSATPNYTHCGLFGDPHLRTFTDRFQTCKVQGAWPLIDNNYLNVQVTNTPVLPGSAATATSKLTIIFKNFQECVDQKVYQAEMDELPAAFVDGSKNGGDKHGANSLKITEKVSGQHVEIQAKYIGTTIVVRQVGRYLTFAVRMPEEVVNAVEDWDSQGLYLCLRGCPLNQQIDFQAFHTNAEGTGARRLAAASPAPTAPETFPYETAVAKCKEKLPVEDLYYQACVFDLLTTGDVNFTLAAYYALEDVKMLHSNKDKLHLYERTRDLPGR
- binding [11]: binds
- binding [10]: binds

B5: full-length extracellular domain of RGMC (RGMCECD) (ligand, UniProt Q6ZVN8 36-400)
chain: QCKILRCNAEYVSSTLSLRGGGSSGALRGGGGGGRGGGVGSGGLCRALRSYALCTRRTARTCRGDLAFHSAVHGIEDLMIQHNCSRQGPTAPPPPRGPALPGAGSGLPAPDPCDYEGRFSRLHGRPPGFLHCASFGDPHVRSFHHHFHTCRVQGAWPLLDNDFLFVQATSSPMALGANATATRKLTIIFKNMQECIDQKVYQAEVDNLPVAFEDGSINGGDRPGGSSLSIQTANPGNHVEIQAAYIGTTIIIRQTAGQLSFSIKVAEDVAMAFSAEQDLQLCVGGCPPSQRLSRSERNRRGAITIDTARRLCKEGLPVEDAYFHSCVFDVLISGDPNFTVAAQAALEDARAFLPDLEKLHLFPSD
- binding [11]: binds
- binding [12]: binds
